# PubChem BioAssay AID540275 (National Center for Advancing Translational Sciences (NCATS), 2011)
# By UniProt entry, the sequences of proteins in these tests, tags left out.
# UniProt Q8NER1, whole entry, looked up: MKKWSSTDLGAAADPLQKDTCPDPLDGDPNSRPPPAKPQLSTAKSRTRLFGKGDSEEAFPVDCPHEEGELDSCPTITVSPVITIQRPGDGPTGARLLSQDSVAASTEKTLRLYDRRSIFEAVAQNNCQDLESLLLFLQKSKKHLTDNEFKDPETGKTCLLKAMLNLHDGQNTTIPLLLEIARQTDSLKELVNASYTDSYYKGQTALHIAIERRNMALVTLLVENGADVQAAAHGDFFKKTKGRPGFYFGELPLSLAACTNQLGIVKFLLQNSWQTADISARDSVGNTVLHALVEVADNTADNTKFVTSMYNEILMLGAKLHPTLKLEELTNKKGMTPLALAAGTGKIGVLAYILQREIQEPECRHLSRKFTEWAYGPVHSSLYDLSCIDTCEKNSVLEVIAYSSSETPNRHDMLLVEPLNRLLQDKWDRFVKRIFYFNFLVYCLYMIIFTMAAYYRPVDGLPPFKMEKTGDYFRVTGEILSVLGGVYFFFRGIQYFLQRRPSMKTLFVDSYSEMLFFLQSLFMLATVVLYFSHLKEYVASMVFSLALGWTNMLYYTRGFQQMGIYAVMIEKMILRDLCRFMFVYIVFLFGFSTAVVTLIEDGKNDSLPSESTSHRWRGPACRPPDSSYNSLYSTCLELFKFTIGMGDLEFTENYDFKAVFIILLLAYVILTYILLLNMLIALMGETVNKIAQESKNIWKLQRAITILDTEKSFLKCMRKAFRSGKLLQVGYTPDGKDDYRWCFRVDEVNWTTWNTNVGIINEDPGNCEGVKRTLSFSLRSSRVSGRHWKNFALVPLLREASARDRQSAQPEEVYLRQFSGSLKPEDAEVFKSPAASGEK
# Out of some 320,000 compounds screened, about 620 (0.19%) were called active. The shares of active, inactive and inconclusive entries below differ from those in the screen. No stated cut-off is given here; in the data, active means activation above about 80%; inconclusive means between about 30% and that limit; inactive means weaker than that.
# Target: Transient receptor potential cation channel subfamily V member 1 (Homo sapiens) (UniProt Q8NER1)
# Assay: HTS Assay for Compounds that Act as Agonists of the Vanilloid Receptor 1; further: 0% is about no effect
# Details: TRPV1-expressing cells, Fluo-8 calcium influx, agonist mode; at 8.33 µM, stronger effect = higher value
# How it was run: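 Cells expressing TRPV1 were dye-loaded with Fluo-8 and read kinetically: 10 s baseline, 3 min after compound (agonist portion), then 2 min after EC20 capsaicin (allosteric enhancer portion). Calcium-bound dye fluorescence at 480/520 nm.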
row,SMILES,activation
1,CCOC(=O)c1c(NC(=O)Cn2nc(C(F)F)cc2C(F)F)sc(C)c1C,inactive: 0.645%
2,Cc1csc2nc(COC(=O)c3ccc(Cl)c([N+](=O)[O-])c3)cc(=O)n12,inactive: -1.58%
3,CCOc1cc(C(=O)NCc2ccc3c(c2)OCO3)cc(OCC)c1OCC,inconclusive: 56%
4,CCCc1ccc2oc(C(=O)NCCCN3CCOCC3)c(C)c2c1,inconclusive: 42.9%
5,COC(=O)c1[nH]c2ccc(C)cc2c1NC(=O)CCN1CCN(Cc2ccc3c(c2)OCO3)CC1,inactive: 0.154%
6,Cc1ccc(NC(=O)C2CCCN(C(=O)c3ccc(Cl)cc3)C2)cc1C (stereo not drawn),inconclusive: 31.1%
7,Cc1sc(NC(=O)c2ccccc2)c(C(c2ccc(Cl)cc2)N2CCN(CCO)CC2)c1C (stereo not drawn),inactive: -6.75%
8,Cc1c([N+](=O)[O-])cc(C(=O)NCc2ccc(F)cc2)cc1[N+](=O)[O-],inconclusive: 37.3%
9,NNC(=O)c1csc(COc2cc(Cl)cc(Cl)c2)n1,inconclusive: 78.4%
10,COc1ccc(Br)cc1/C=N/NC(=O)c1cc(Br)ccc1O,inactive: -0.818%
11,Cc1ccc(NC(=O)N2CCN(S(=O)(=O)c3ccccc3)CC2)cc1,inconclusive: 53.2%
12,CC(C)(C)CN1CCNC(=O)C1CC(=O)NCCc1cnn(-c2ccccc2)c1 (stereo not drawn),inactive: 0.384%
13,CCCCC[C@H]1CN(Cc2ccccc2)C(=O)[C@@H]1CC(=O)NCc1ccc(OC)cc1,inconclusive: 45.9%
14,Cc1ccc(C(=O)NC(C)CCc2ccccc2)cc1[N+](=O)[O-] (stereo not drawn),inconclusive: 47.2%
15,COc1ccc(CNCc2cccc(Cl)c2)cc1,inconclusive: 32.1%
16,Cc1nc(Nc2cccc(F)c2)c2oc3ccccc3c2n1,active: 98.6%
17,O=C(CCc1nc2ccccc2s1)OCC(=O)c1ccccc1,inactive: 11.1%
18,Cc1ccc(C)c(N2CCN(C(=O)CCn3c(=S)[nH]c4cc5c(cc4c3=O)OCO5)CC2)c1,inactive: 2.52%
19,Cc1ccc(C(=O)Nc2ccc3ccccc3c2)cc1,inconclusive: 74.8%
20,O=C(N/N=C\c1cccnc1)c1ccc(Cl)s1,inconclusive: 51%

# Already shown: entries from further up.
row,SMILES,activation
1,CCOC(=O)c1c(NC(=O)Cn2nc(C(F)F)cc2C(F)F)sc(C)c1C,inactive: 0.645%
2,Cc1csc2nc(COC(=O)c3ccc(Cl)c([N+](=O)[O-])c3)cc(=O)n12,inactive: -1.58%

# Additional compounds follow.

row,SMILES,activation
1,COc1cc(C2C3=C(CC(c4ccco4)CC3=O)Nc3ccccc3N2C(C)=O)cc(OC)c1OC (stereo not drawn),inactive: 1.84%
2,COC(=O)CSc1nc(Cc2ccccc2)nc2ccccc12,inconclusive: 33.4%
3,CCN(CC(=O)NC(=O)NCc1ccccc1)Cc1ccccc1,inconclusive: 36.5%
4,CC1CCCN(C(=O)CCCn2c(=S)[nH]c3ccccc3c2=O)C1 (stereo not drawn),inconclusive: 32.6%
5,CCCOP(=O)(c1ccc(N(C)C)cc1)C(Nc1ccccc1)c1ccc(N(C)C)cc1 (stereo not drawn),inconclusive: 43.9%
6,O=C(/C=C\c1ccccc1)Nc1ccc(NC(=O)c2ccco2)cc1,inactive: 3.38%
7,FC(F)(F)c1cccc(N2CCN(C(=S)NCC3CCCO3)CC2)c1 (stereo not drawn),inconclusive: 47.9%
8,CC(C)(C)NC(=O)/C=C/c1ccc(C(F)(F)F)cc1,inconclusive: 70.7%
9,O=C(Cc1ccc(Cl)cc1)Nc1cc(S(=O)(=O)N2CCOCC2)ccc1N1CCCC1,inactive: 6.37%
10,S=C(NCC1COc2ccccc2O1)Nc1ccc(Br)cc1 (stereo not drawn),inconclusive: 42.1%
11,CCCCCCCCOC(=O)c1ccc(N)cc1,inactive: 1.61%
12,CCCOc1ccc(-c2nnc(-c3ccncc3)o2)cc1,inconclusive: 52.7%
13,S=c1[nH]nc(Cc2ccccc2)n1-c1ccc(Cl)cc1,inactive: 1.39%
14,N#CC(CC(=O)c1ccc(F)cc1)c1ccc2c(c1)OCO2 (stereo not drawn),inconclusive: 40.3%
15,Cc1cc(NC(=O)CCC(=O)N(CC(C)C)C(C(=O)NC(C)(C)C)c2ccccc2Cl)no1 (stereo not drawn),inconclusive: 48%
16,O=C(c1cc(-c2ccc3c(c2)OCO3)on1)N1CCCCC1,inconclusive: 48.6%
17,CCOc1ccccc1N1CCN(C(=S)NCc2ccco2)CC1,inconclusive: 32.7%
18,COc1ccc(/C=C(/NC(=O)c2ccc([N+](=O)[O-])cc2)C(=O)NCCCN(C)C)cc1,inactive: 2.68%
19,Cc1ccc(N=Nc2c(N)nn(-c3ccccc3)c2N)cc1,inconclusive: 51.2%
20,Cc1ccccc1C(=O)NC1CC2CCCC(C1)N2Cc1ccc(Cl)cc1 (stereo not drawn),inactive: 1.21%

# Retrieved by structure from above (3):
row,SMILES,activation
6,O=C(/C=C\c1ccccc1)Nc1ccc(NC(=O)c2ccco2)cc1,inactive: 3.38%
11,CCCCCCCCOC(=O)c1ccc(N)cc1,inactive: 1.61%
20,Cc1ccccc1C(=O)NC1CC2CCCC(C1)N2Cc1ccc(Cl)cc1 (stereo not drawn),inactive: 1.21%

# Later entries:

row,SMILES,activation
1,O=C(c1ccc(S(=O)(=O)N2CCOCC2)cc1)N1CCN(c2ccccc2F)CC1,inconclusive: 31.9%
2,Cn1ccnc1C(=O)c1cc(SCC(=O)NC2CC2)nc2ccccc12,inactive: -5.45%
3,C=CCn1c(-c2ccccc2[N+](=O)[O-])n[nH]c1=S,inactive: -2.23%
4,Cn1cc(NC(=O)Nc2ccc(C(F)(F)F)cc2)c(C(F)(F)F)n1,inconclusive: 30.6%
5,COCCN(C(=S)Nc1ccccc1OC)C1CCN(C(C)=O)CC1,inactive: -14.5%
6,CC(C)CN1C(=O)c2ccc(C(=O)Nc3ccccn3)cc2C1=O,inconclusive: 31.7%
7,O=C(Nc1cccc2c1CCCC2)c1ccc(Br)o1,inconclusive: 32.9%
8,COc1cccc(C(=O)NN2CC(O)=C(c3nc4ccccc4s3)C2=N)c1,inconclusive: 37%
9,CC(=O)NCCn1c(SCc2ccc(C)cc2)nc2ccccc2c1=O,inconclusive: 40.7%
10,COc1cccc(-c2ccc3ncnc(N(C)Cc4ccco4)c3c2)c1,inconclusive: 38.3%
11,Oc1c(C(Nc2cccc(C(F)(F)F)c2)c2ccncc2)ccc2cccnc12 (stereo not drawn),inconclusive: 33.7%
12,CCN(CC)CCCN(C(=O)c1ccccc1C)c1nc(-c2ccc(OC)cc2)cs1,inactive: -0.744%
13,CCc1ccc2c(CN3CCN(Cc4ccccc4)CC3)cc(=O)oc2c1,inactive: 1.42%
14,CC(C)OCCCNc1ncnc2c1[nH]c1ccccc12,inconclusive: 47.4%
15,Cc1ccc(C2=NN(CCC(=O)NCc3ccc4c(c3)OCO4)C(=O)CC2)cc1,inactive: -2.05%
16,O=C(CCc1ccccc1)Nc1ccc(S(=O)(=O)N2CCCC2)cc1,inconclusive: 49.7%
17,Cc1nnc(SCC(=O)Nc2nsc(-c3ccc(C(C)(C)C)cc3)n2)s1,inconclusive: 32.4%
18,O=C1C2C(c3ccccc3)C=CC(c3ccccc3)C2C(=O)N1CCCO (stereo not drawn),inconclusive: 53.1%
